Measurements published in patent publication US20160223562A1, “Method for Determining the Concentration of a Peptide” (JPT Peptide Technologies GmbH, priority 2010, published 2016).
Part of at least one peptide drawing is inferred or uncertain, most often the ends. Square brackets hold non-standard residues; d marks the D form. Peptide text beside a SMILES is read from it. Tyr(3-NO2) = N[C@@H](Cc1ccc(O)c([N+](=O)[O-])c1)C(=O)O

By UniProt entry, the sequences of proteins in these tests, tags left out. Residues count along the entry.
UniProt P00761, 9-231: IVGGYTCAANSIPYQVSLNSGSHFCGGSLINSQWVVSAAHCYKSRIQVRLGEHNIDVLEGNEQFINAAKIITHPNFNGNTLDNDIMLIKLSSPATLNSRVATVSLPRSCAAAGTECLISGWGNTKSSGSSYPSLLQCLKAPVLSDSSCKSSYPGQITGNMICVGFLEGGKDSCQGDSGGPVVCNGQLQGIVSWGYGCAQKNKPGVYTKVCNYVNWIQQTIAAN

Key:
protease trypsin = experiment: Trypsin cleavage of internal peptide standard carrying a nitro-tyrosine first tag, HPLC UV trace before/after; assay type: biochemical; conditions: 32° C. for one hour, HPLC UV-Vis trace at 410 nm
Trypsin = molecular target: T1, Trypsin (Sus scrofa, UniProt P00761); experiment: Trypsin cleavage of N-terminal quantification tag Ac-nitroTyr-SGK- from peptides, LC-MS with UV detection at 350 nm; assay type: biochemical
T1 construct: purchased Promega Corporation V511
Description: Trypsin Activation: Trypsin (20 μg, sequencing grade modified trypsin, Promega Corporation, Madison, Wis., USA, catalogue no. V511, specific activity 16.965 u/mg) was dissolved in Trypsin resuspension buffer (200 μL, Promega, catalogue no. V542A, ingredient 50 mM acetic acid) and incubated for 15 min at 37° C.
Reduction and alkylation: The peptide (approx. 0.05 mg) was dissolved in 1 M urea and 100 mM fresh ammonium hydrogen carbonate (300 μL). TCEP (Tris(2-carboxyethyl) phosphine hydrochloride, 0.2 M, 7.5 μL, final concentration 5 mM) was added and the solution incubated at 37° C. for 1 h. After addition of iodoacetamide (0.5 M, 6.0 μL, final concentration 10 mM) the solution was incubated at RT in the dark for another 30 min. Digestion: The sample was digested with activated Trypsin solution (10 μL per well, 1.0 μg, resulting enzyme/substrate ratio 1:50) over night at RT. To stop the digestion, HCl (2 M, 8 μL final concentration 50 mM) and TFA (3.2 μL, final concentration 1%, pH<2) were added. Finally, the sample was analyzed by LC-MS at 350 nm.
38 peptides carrying the N-terminal quantification-tag Ac-nitroTyr-SGK-(SEQ ID NO:32) were synthesized by SPOT synthesis (Table 3). The peptide sequences are based on two different amino acid sequences, which in each case contain 19 different amino acids N-terminally attached to lysine (the 20 naturally occurring amino acids except cysteine).
All peptides were subjected to the same trypsin cleavage protocol as described in example 9. It is apparent that the quantification tag is efficiently cleaved (>99%) in nearly all cases.

| Structure (SMILES) | cleavage rate (protease trypsin) [%] | cleavage efficiency in words (Trypsin) |
| --- | --- | --- |
| CSCC[C@H](NC(=O)CNC(=O)[C@H](Cc1ccc(O)cc1)NC(=O)[C@@H](N)Cc1ccccc1)C(=O)N[C@@H](C)C(=O)N[C@@H](CC(C)C)C(=O)N[C@@H](CC(=O)O)C(=O)NCC(=O)N[C@@H](Cc1ccc(O)cc1)C(=O)N[C@@H](C)C(=O)N1CCC[C@H]1C(=O)N[C@@H](CCCCN)C(=O)N[C@@H](CO)C(=O)N[C@@H](C)C(=O)N[C@@H](Cc1ccc(O)c([N+](=O)[O-])c1)C(=O)N[C@@H](CCCNC(=N)N)C(=O)O [FYGMALDGYAPK-SA-nitroTyr-R] (H-FYGMALDGYAPKSA[Tyr(3-NO2)]R-OH) | ~100 | – |
| CC(=O)N[C@@H](Cc1ccc(O)c([N+](=O)[O-])c1)C(=O)N[C@@H](CO)C(=O)NCC(=O)N[C@@H](CCCCN)C(=O)N[C@@H](CCCCN)C(=O)N[C@H](C(=O)N[C@@H](C)C(=O)N[C@@H](CC(C)C)C(=O)N[C@@H](CO)C(=O)N[C@@H](CC(C)C)C(=O)N[C@@H](CC(=O)O)C(=O)N[C@@H](CC(=O)O)C(=O)N[C@H](C(=O)N[C@@H](CCCCN)C(=O)O)C(C)C)C(C)C [Peptide 29, Ac-nitroTyr-SGKKVALSLDDV-K-OH] (Ac-[Tyr(3-NO2)]SGKKVALSLDDVK-OH) | – | good cleavage efficiencies |
| CC(=O)N[C@@H](Cc1ccc(O)c([N+](=O)[O-])c1)C(=O)N[C@@H](CO)C(=O)NCC(=O)N[C@@H](CCCCN)C(=O)N1CCC[C@H]1C(=O)N[C@H](C(=O)N[C@@H](C)C(=O)N[C@@H](CC(C)C)C(=O)N[C@@H](CO)C(=O)N[C@@H](CC(C)C)C(=O)N[C@@H](CC(=O)O)C(=O)N[C@@H](CC(=O)O)C(=O)N[C@H](C(=O)N[C@@H](CCCCN)C(=O)O)C(C)C)C(C)C [Peptide 33, Ac-nitroTyr-SGKPVALSLDDV-K-OH] (Ac-[Tyr(3-NO2)]SGKPVALSLDDVK-OH) | – | not efficiently cleaved |
| CC(=O)N[C@@H](Cc1ccc(O)c([N+](=O)[O-])c1)C(=O)N[C@@H](CO)C(=O)NCC(=O)N[C@@H](CCCCN)C(=O)N[C@@H](CCCNC(=N)N)C(=O)N[C@H](C(=O)N[C@@H](C)C(=O)N[C@@H](CC(C)C)C(=O)N[C@@H](CO)C(=O)N[C@@H](CC(C)C)C(=O)N[C@@H](CC(=O)O)C(=O)N[C@@H](CC(=O)O)C(=O)N[C@H](C(=O)N[C@@H](CCCCN)C(=O)O)C(C)C)C(C)C [Peptide 35, Ac-nitroTyr-SGKRVALSLDDV-K-OH] (Ac-[Tyr(3-NO2)]SGKRVALSLDDVK-OH) | – | good cleavage efficiencies |
